Assay results taken from paper PMC6814797 (Scientific Reports, 2019).

Test: peptide made by a vendor (peptide synthesis; 4-[2,4-dimethoxyphenyl-N-(9-fluorenylmethoxycarbonyl)aminomethyl]phenoxy resin; HBTU/HOAt/DIEA (on-resin cyclization))
Details: conjugation step, analytical HPLC

With “PEPTIDE1{F.Y.[Lys(iPr)].[dR].[2Nal].G.[dE].[Lys(iPr)].C.[am]}|CHEM1{[MalDOTA]}$PEPTIDE1,PEPTIDE1,1:R1-7:R3|PEPTIDE1,CHEM1,9:R3-1:R1$$$V2.0” the “final HPLC purity” value was 98.48%.

HELM strings list residues between dots; [ac] is acetyl, [am] amide, other brackets name non-standard units.
